In publication PMC5818423:
These are yes or no findings as the source states them, for the method shown. Binding seen in cells or lysates may run through a third protein. Some binding calls cover weakened binding; strength is not graded here.

Amino acid sequences for entries named in this document (tags omitted).
UniProt P27487: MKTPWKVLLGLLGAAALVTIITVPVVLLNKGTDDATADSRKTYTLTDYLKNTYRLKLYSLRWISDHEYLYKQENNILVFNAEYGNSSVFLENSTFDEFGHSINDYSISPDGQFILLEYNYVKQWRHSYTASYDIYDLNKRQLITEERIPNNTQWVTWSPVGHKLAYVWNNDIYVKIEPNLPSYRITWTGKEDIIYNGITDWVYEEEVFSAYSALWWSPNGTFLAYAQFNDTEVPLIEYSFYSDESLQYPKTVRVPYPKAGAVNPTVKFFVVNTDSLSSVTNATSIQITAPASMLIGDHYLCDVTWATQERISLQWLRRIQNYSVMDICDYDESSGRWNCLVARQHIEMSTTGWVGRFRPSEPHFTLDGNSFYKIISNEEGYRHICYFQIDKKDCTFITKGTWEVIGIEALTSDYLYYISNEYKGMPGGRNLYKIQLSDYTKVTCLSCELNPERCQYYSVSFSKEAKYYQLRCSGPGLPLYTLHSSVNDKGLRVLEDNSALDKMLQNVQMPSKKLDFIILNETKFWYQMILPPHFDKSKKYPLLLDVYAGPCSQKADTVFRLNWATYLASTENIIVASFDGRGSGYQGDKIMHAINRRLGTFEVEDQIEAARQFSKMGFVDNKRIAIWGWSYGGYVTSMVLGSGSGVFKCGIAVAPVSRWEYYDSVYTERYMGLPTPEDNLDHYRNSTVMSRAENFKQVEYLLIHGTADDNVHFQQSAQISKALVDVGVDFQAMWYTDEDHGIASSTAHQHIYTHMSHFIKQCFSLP

What was measured:
[1] = target: CD26-YFP (human CD26 / dipeptidyl peptidase IV fused to YFP on the C-terminal end) (human) (UniProt P27487); test: FRET or BRET; the same NanoBRET experiment between two HEK-293T cell populations with bovine ADA (0.01-10 ug/ml) added in solution; pair: soluble bovine ADA and the membrane protein on cells; only the binder purified
[2] = target: A2AR-Nluc-spacer (human adenosine A2A receptor fused to NanoLuc on the N-terminal end, with spacer) (human) (UniProt P29274); test: as above
[3] = target: CD26-YFP (human CD26 / dipeptidyl peptidase IV fused to YFP on the C-terminal end) (human) (UniProt P27487); test: FRET or BRET; NanoBRET between A2AR-Nluc-spacer HEK-293T cells and CD26-YFP HEK-293T cells, 10 min in HBSS without shaking, without or with human wild-type, Leu58Ala or Leu62Ala ADA, all at 1 ug/ml (ADA only partially purified from E. coli); 5 uM coelenterazine H
[4] = target: A2AR-Nluc-spacer (human adenosine A2A receptor fused to NanoLuc on the N-terminal end, with spacer) (human) (UniProt P29274); test: as above

B1: Bovine adenosine deaminase (ADA) (enzyme, UniProt P56658 1-363)
chain: MAQTPAFNKPKVELHVHLDGAIKPETILYYGRKRGIALPADTPEELQNIIGMDKPLSLPEFLAKFDYYMPAIAGCREAVKRIAYEFVEMKAKDGVVYVEVRYSPHLLANSKVEPIPWNQAEGDLTPDEVVSLVNQGLQEGERDFGVKVRSILCCMRHQPSWSSEVVELCKKYREQTVVAIDLAGDETIEGSSLFPGHVKAYAEAVKSGVHRTVHAGEVGSANVVKEAVDTLKTERLGHGYHTLEDATLYNRLRQENMHFEVCPWSSYLTGAWKPDTEHPVVRFKNDQVNYSLNTDDPLIFKSTLDTDYQMTKNEMGFTEEEFKRLNINAAKSSFLPEDEKKELLDLLYKAYGMPSPASAEQCL
- binding [1]: binds
- binding [2]: binds

B2: Human wild-type adenosine deaminase (ADA) (enzyme, UniProt P00813 1-363)
chain: MAQTPAFDKPKVELHVHLDGSIKPETILYYGRRRGIALPANTAEGLLNVIGMDKPLTLPDFLAKFDYYMPAIAGCREAIKRIAYEFVEMKAKEGVVYVEVRYSPHLLANSKVEPIPWNQAEGDLTPDEVVALVGQGLQEGERDFGVKARSILCCMRHQPNWSPKVVELCKKYQQQTVVAIDLAGDETIPGSSLLPGHVQAYQEAVKSGIHRTVHAGEVGSAEVVKEAVDILKTERLGHGYHTLEDQALYNRLRQENMHFEICPWSSYLTGAWKPDTEHAVIRLKNDQANYSLNTDDPLIFKSTLDTDYQMTKRDMGFTEEEFKRLNINAAKSSFLPEDEKRELLDLLYKAYGMPPSASAGQNL
- binding [3]: binds
- binding [4]: binds
